{
  "source": "PubChem BioAssay AID504834",
  "about": "(National Center for Advancing Translational Sciences (NCATS), 2011)",
  "note": "About 22,000 (6.9%) of roughly 320,000 compounds were called active. The shares of active, inactive and inconclusive entries below differ from those in the screen. Calls come from the whole dose curve; as a rule, active = well fitted inhibition curve with a large enough effect; inconclusive = small, poorly fitted or top-dose-only effect, or another doubt; inactive = no such curve, though single readings can be large or run the other way. Potencies of inconclusive entries are doubtful fits and often do not repeat.",
  "data": [
    {"assay": "Primary qHTS for delayed death inhibitors of the malarial parasite plastid, 96 hour incubation; note: potency is the fitted concentration of half-maximal effect; for activity change, negative = inhibition: % is set by controls: 0 for no effect and ±100 for the full control effect", "settings": "P. falciparum luciferase reporter growth; series mostly up to 28.7 µM; activity change, negative = inhibition: at the top concentration", "outline": "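Two parasite generations (96 h, 37 C, 5% CO2) of compound exposure in infected erythrocytes (0.05% parasitemia, 2% hematocrit). Luciferase-reporter P. falciparum; decreased luminescence indicates inhibited growth, aimed at apicoplast-acting delayed death.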", "values": [
      {"compound": "CCC(C)C(=O)Nc1ccc(OC)cc1OC", "note": "(stereo unspecified)", "activity change, negative = inhibition": "inactive: 10.4%"},
      {"compound": "CC1CCC(C(C)C)C(OC(=O)Cn2c(-c3ccc(F)cc3)[n+](C)c3ccccc32)C1", "note": "(stereo unspecified)", "Potency": "inconclusive: 9.28 µM [inhibitor, single point]"},
      {"compound": "CC12CCC(C/C1=N/NC(=O)Nc1ccccc1)C2(C)C", "note": "(stereo unspecified)", "activity change, negative = inhibition": "inactive: 36.2% [at 5.75 µM]"},
      {"compound": "COc1ccccc1C(C#N)N1N=C(C)CC1c1ccccc1", "note": "(stereo unspecified)", "activity change, negative = inhibition": "inactive: 56.6%"},
      {"compound": "COc1ccc(NC(=O)CC2C(=O)N(c3cccc(OC)c3)C(=O)N2CCC(C)C)cc1", "note": "(stereo unspecified)", "Potency": "active: 11.7 µM"},
      {"compound": "O=C(O)CCC(=O)Nc1nc2nc(-c3ccccc3)cc(-c3ccccc3)n2n1", "Potency": "inconclusive: 0.0465 µM [inhibitor, full curve, poor fit]"},
      {"compound": "CCCc1cc2c(-c3ccccc3)cc(=O)oc2cc1OCc1ccc(C(=O)O)o1", "Potency": "inconclusive: 9.28 µM [inhibitor, partial curve, poor fit]"},
      {"compound": "O=C(c1ccco1)N1CCN(c2ncnc3scc(-c4cccs4)c23)CC1", "Potency": "inconclusive: 0.0033 µM [inhibitor, full curve, poor fit]"},
      {"compound": "CSc1nsc(SCC(=O)Nc2ccc(F)cc2F)n1", "activity change, negative = inhibition": "inactive: 23.2%"},
      {"compound": "Cc1ccc(C)c(NC(=S)N/N=C2/CCCCc3ccccc32)c1", "Potency": "active: 4.15 µM"},
      {"compound": "O=c1[nH]c(CN2CCN(C/C=C/c3ccccc3)CC2)nc2cc(Cl)ccc12", "activity change, negative = inhibition": "inactive: -4.96%"},
      {"compound": "Cc1ccc(Cl)c(NC(=O)CSc2n[nH]c(=O)n2C2CC2)c1Cl", "Potency": "inconclusive: 1.04 µM [inhibitor, partial curve, poor fit]"},
      {"compound": "COc1ccc(NS(=O)(=O)c2cc(C(=O)Nc3ccccc3C(=O)O)ccc2C)cc1", "Potency": "inconclusive: 18.5 µM [inhibitor, single point]"},
      {"compound": "Fc1ccc(COc2ccc(/C=N/n3cnnc3)cc2)cc1", "Potency": "inconclusive: 18.5 µM [inhibitor, single point]"},
      {"compound": "COc1ccc(CN(C)C(=O)c2cccc(NS(=O)(=O)c3ccccc3)c2)c(OC)c1", "activity change, negative = inhibition": "inactive: 6.07%"},
      {"compound": "COc1ccc(C2(CNC(=O)c3ccccc3[N+](=O)[O-])CCOCC2)cc1", "activity change, negative = inhibition": "inactive: 45%"},
      {"compound": "COc1ccc(Cl)cc1NC(=O)c1sc2nc(C)nc(N3CCOCC3)c2c1C", "Potency": "inconclusive: 18.5 µM [inhibitor, single point]"},
      {"compound": "Cn1c(=O)c2c(nc3n2CCCN3CCc2ccccc2)n(C)c1=O", "Potency": "inconclusive: 18.5 µM [inhibitor, single point]"},
      {"compound": "CSc1cccc(N/C(=N/S(=O)(=O)c2ccccc2)NN)c1", "activity change, negative = inhibition": "inactive: -9.93%"},
      {"compound": "COc1ccc(/C=C/C(=O)NCCn2c(C)cc3ccccc32)cc1OC", "Potency": "inconclusive: 9.28 µM [inhibitor, partial curve]"},
      {"compound": "COc1cccc(C(c2sc3nc(C)nn3c2O)N2CCc3ccccc3C2)c1", "note": "(stereo unspecified)", "Potency": "inconclusive: 10.4 µM [inhibitor, single point]"},
      {"compound": "O=c1[nH]c(=S)[nH]c(O)c1N=Nc1cc(S(=O)(=O)Nc2ccc(Cl)cc2)ccc1Cl", "Potency": "inconclusive: 10.4 µM [inhibitor, single point]"},
      {"compound": "CC(NC(=O)c1cccs1)C(c1cccs1)N1CCN(Cc2ccccc2)CC1", "note": "(stereo unspecified)", "activity change, negative = inhibition": "inactive: 2.9%"},
      {"compound": "COc1ccc(CCNC(=O)COc2ccc(S(=O)(=O)NC3CCCCC3)cc2Cl)cc1", "Potency": "inconclusive: 11.7 µM [inhibitor, single point]"},
      {"compound": "CN(C)C(=O)CCC(=O)N(C)CC1CCCN(CCc2ccc(F)cc2)C1", "note": "(stereo unspecified)", "Potency": "inconclusive: 11.7 µM [inhibitor, single point]"},
      {"compound": "COc1cc(CN2CCC(C)CC2)ccc1OCc1ccccc1", "Potency": "inconclusive: 0.0033 µM [inhibitor, full curve, poor fit]"},
      {"compound": "O=S(=O)(NCc1ccc(Cl)cc1)c1cccc2cccnc12", "activity change, negative = inhibition": "inactive: 16.3%"},
      {"compound": "O=C(NCc1ccccn1)c1ccc(OC2CCN(Cc3ccccc3O)CC2)cc1", "Potency": "inconclusive: 18.5 µM [inhibitor, single point]"},
      {"compound": "COc1ccc(N(Cc2cc3ccccc3[nH]c2=O)S(C)(=O)=O)cc1", "Potency": "inconclusive: 4.65 µM [inhibitor, partial curve, poor fit]"},
      {"compound": "Cc1cc(C(=O)O)ccc1[N+](=O)[O-]", "Potency": "inconclusive: 4.65 µM [inhibitor, single point]"},
      {"compound": "CC1(C#CC[N+]2(C)CCCCC2)CCC2C(O1)c1ccccc1OC2(C)C", "note": "(stereo unspecified)", "Potency": "active: 3.7 µM"},
      {"compound": "CCn1c(SCC(=O)NC2CCCc3ccccc32)nnc1-c1cccs1", "note": "(stereo unspecified)", "Potency": "inconclusive: 4.65 µM [inhibitor, partial curve, poor fit]"},
      {"compound": "O=C(Nc1ccc(S(=O)(=O)NCC2CCCO2)cc1)c1ccc(F)cc1", "note": "(stereo unspecified)", "Potency": "inconclusive: 1.65 µM [inhibitor, full curve]"},
      {"compound": "COc1cccc(NC(=O)c2cccnn2)c1", "Potency": "inconclusive: 7.38 µM [inhibitor, partial curve]"},
      {"compound": "O=C(NCc1nnc(SCC(=O)N2CCCc3ccccc32)o1)c1ccccc1F", "Potency": "inconclusive: 3.7 µM [inhibitor, partial curve, poor fit]"},
      {"compound": "CN1CCN(Cc2nc3c(c(=O)n(C)c(=O)n3C)n2CCCc2ccccc2)CC1", "Potency": "inconclusive: 14.7 µM [inhibitor, partial curve, poor fit]"},
      {"compound": "CCOC(=O)CNC(=O)CN1CCC(c2nc3ccccc3[nH]2)CC1", "Potency": "inconclusive: 18.5 µM [inhibitor, single point]"},
      {"compound": "COc1cnc(-c2ccccc2)nc1Oc1cccc(C)c1C", "activity change, negative = inhibition": "inactive: -0.597%"},
      {"compound": "CCC(C)NC(=O)C1CCN(S(=O)(=O)c2cccnc2)CC1", "note": "(stereo unspecified)", "Potency": "inconclusive: 5.22 µM [inhibitor, partial curve, poor fit]"},
      {"compound": "Cn1c(-c2ccc(F)cc2)cnc1NCc1ccc(F)cc1", "Potency": "inconclusive: 6.57 µM [inhibitor, partial curve]"},
      {"compound": "CCS(=O)(=O)N1CCCC(C(=O)Oc2ccc(Br)cc2)C1", "note": "(stereo unspecified)", "activity change, negative = inhibition": "inactive: 29.4%"},
      {"compound": "CN(Cc1ccccc1)Cc1nc2c(c(=O)n(C)c(=O)n2C)n1Cc1ccc(F)cc1", "Potency": "active: 11.7 µM"},
      {"compound": "COc1ccc(N(CC(=O)NCCSCc2ccccc2Cl)S(C)(=O)=O)cc1Cl", "Potency": "inconclusive: 18.5 µM [inhibitor, single point]"},
      {"compound": "CCN(CC(=O)Nc1ccc(NC(C)=O)cc1)C(=O)c1ccccc1CCc1ccccc1", "activity change, negative = inhibition": "inactive: -5.02%"},
      {"compound": "O=C(NC1CCCCC1)c1cc(S(=O)(=O)N2CCOCC2)c(Cl)cc1Cl", "Potency": "inconclusive: 10.4 µM [inhibitor, single point]"},
      {"compound": "COc1cccc(CNC(=O)CCCN2C(=O)C(c3ccccc3)Oc3cccnc32)c1OC", "note": "(stereo unspecified)", "Potency": "inconclusive: 8.28 µM [inhibitor, partial curve]"},
      {"compound": "C[C@@H](C(=O)O)c1ccc(C(=O)c2ccccc2)s1", "activity change, negative = inhibition": "inactive: -14.4% [at 12.8 µM]"},
      {"compound": "CCOc1ccc(S(=O)(=O)NC(Cc2cnc[nH]2)C(=O)O)cc1", "note": "(stereo unspecified)", "activity change, negative = inhibition": "inactive: 22.2%"},
      {"compound": "Cn1cnnc1SCc1ccccc1Br", "activity change, negative = inhibition": "inactive: -7.7%"},
      {"compound": "O=C(O)c1ccc2c(c1)C(=O)N([C@]1(C(=O)O)C[C@H]1c1ccccc1)C2=O", "activity change, negative = inhibition": "inactive: 15.9%"},
      {"compound": "O=S(=O)(Nc1cc(S(=O)(=O)N2CCOCC2)ccc1NCC1CCCO1)c1ccc(F)cc1", "note": "(stereo unspecified)", "Potency": "inconclusive: 18.5 µM [inhibitor, single point]"},
      {"compound": "O=C(Nc1cc(C(F)(F)F)ccc1Cl)c1ccc(NC(=O)C(F)(F)F)cc1", "Potency": "inconclusive: 0.294 µM [inhibitor, full curve, poor fit]"},
      {"compound": "COc1ccc(N2CCN(C(=O)[C@H](Cc3c[nH]c4ccccc34)NC(C)=O)CC2)cc1", "activity change, negative = inhibition": "inactive: 43.1% [at 5.75 µM]"},
      {"compound": "O=S(=O)(Cc1ccccc1)N1CCCCCC1", "activity change, negative = inhibition": "inactive: -0.413%"},
      {"compound": "Cc1cc(OC(=O)N(C)C)nc(SCc2c(Cl)cccc2Cl)n1", "Potency": "inconclusive: 1.65 µM [inhibitor, full curve]"},
      {"compound": "Cc1ccc(CN=C(Nc2ccccc2)NC2CCCCC2)cc1", "Potency": "inconclusive: 18.5 µM [inhibitor, single point]"},
      {"compound": "COc1ccc(N(C(=O)CS(=O)CC(=O)Nc2ccc(F)cc2)C(C(=O)NC2CCCCC2)c2cccs2)cc1", "note": "(stereo unspecified)", "Potency": "inconclusive: 18.5 µM [inhibitor, single point]"},
      {"compound": "COc1ccccc1C(=O)NCCC(=O)Nc1cccc(S(=O)(=O)N2CCCC2)c1", "Potency": "inconclusive: 0.117 µM [inhibitor, full curve, poor fit]"},
      {"compound": "O=C(CN1CCc2cc3c(cc2C1)OCCCO3)Nc1ccc(F)cc1", "Potency": "inconclusive: 18.5 µM [inhibitor, single point]"},
      {"compound": "COc1ccc2c(C)cc(SCC(=O)N(C)C3CCS(=O)(=O)C3)nc2c1", "note": "(stereo unspecified)", "Potency": "inconclusive: 13.1 µM [inhibitor, partial curve, poor fit]"},
      {"compound": "CC1=C([N+](=O)[O-])C(c2ccccc2)C2=C(N1)c1ccccc1C2=O", "note": "(stereo unspecified)", "Potency": "active: 2.94 µM"},
      {"compound": "Cc1ccccc1C(=O)Nc1nnc(S(=O)(=O)N2CCCCCC2)s1", "activity change, negative = inhibition": "inactive: -23.1%"},
      {"compound": "CCOc1cc(Br)c(C(=O)O)cc1OC", "Potency": "inconclusive: 16.5 µM [inhibitor, single point]"},
      {"compound": "CCCCn1c(SCC(=O)Nc2cc(C(F)(F)F)ccc2Cl)nnc1C(CC)N(C)C", "note": "(stereo unspecified)", "Potency": "inconclusive: 10.4 µM [inhibitor, single point]"},
      {"compound": "CN1CCNC(=O)C1CC(=O)NCCC1=CCCCC1", "note": "(stereo unspecified)", "Potency": "inconclusive: 9.28 µM [inhibitor, single point]"},
      {"compound": "O=C1NC(=O)C(=Cc2ccccc2Oc2ccc(F)cc2)C(=O)N1", "activity change, negative = inhibition": "inactive: 15.2%"},
      {"compound": "O=C(O)Cc1ccc(C(=O)c2ccc(Cl)cc2)s1", "activity change, negative = inhibition": "inactive: -26.3%"},
      {"compound": "O=C(NCC1CCCO1)C(=O)N/N=C/c1c(F)cccc1Cl", "note": "(stereo unspecified)", "Potency": "inconclusive: 1.04 µM [inhibitor, full curve]"},
      {"compound": "C=CCn1c(CSCc2ccccc2)nnc1SCC(=O)N1CCN(c2ccccc2)CC1", "Potency": "inconclusive: 9.28 µM [inhibitor, partial curve, poor fit]"},
      {"compound": "CCCn1nnc(NC(=O)c2cc(Br)cc(Br)c2OC)n1", "activity change, negative = inhibition": "inactive: -11%"},
      {"compound": "CCOc1cc2c(cc1OCC)-n1cccc1C(c1cccc(F)c1F)NC2", "note": "(stereo unspecified)", "Potency": "inconclusive: 18.5 µM [inhibitor, single point]"}
    ]}
  ]
}
